Data on two molecules can be found in ChEMBL document CHEMBL1909046, “DrugMatrix in vitro pharmacology data”.

By UniProt entry, the sequences of proteins in these tests, tags left out. Where a name states a change or a piece, a line headed by the entry shows the natural chain unless it says otherwise.
UniProt P05177, whole entry: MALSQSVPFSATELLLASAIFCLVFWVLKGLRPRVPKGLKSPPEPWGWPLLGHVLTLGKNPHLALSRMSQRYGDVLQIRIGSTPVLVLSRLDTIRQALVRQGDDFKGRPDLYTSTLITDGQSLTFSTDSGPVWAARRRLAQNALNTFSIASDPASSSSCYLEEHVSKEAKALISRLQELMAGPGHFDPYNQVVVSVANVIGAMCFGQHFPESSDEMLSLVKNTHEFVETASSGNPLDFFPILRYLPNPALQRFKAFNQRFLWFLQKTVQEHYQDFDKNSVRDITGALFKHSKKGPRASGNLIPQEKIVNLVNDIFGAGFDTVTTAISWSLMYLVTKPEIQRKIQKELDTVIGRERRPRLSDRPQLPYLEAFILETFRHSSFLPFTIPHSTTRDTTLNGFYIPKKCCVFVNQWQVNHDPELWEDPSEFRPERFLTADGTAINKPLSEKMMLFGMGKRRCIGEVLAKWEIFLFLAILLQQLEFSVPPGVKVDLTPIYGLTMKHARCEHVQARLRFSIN
UniProt P11509: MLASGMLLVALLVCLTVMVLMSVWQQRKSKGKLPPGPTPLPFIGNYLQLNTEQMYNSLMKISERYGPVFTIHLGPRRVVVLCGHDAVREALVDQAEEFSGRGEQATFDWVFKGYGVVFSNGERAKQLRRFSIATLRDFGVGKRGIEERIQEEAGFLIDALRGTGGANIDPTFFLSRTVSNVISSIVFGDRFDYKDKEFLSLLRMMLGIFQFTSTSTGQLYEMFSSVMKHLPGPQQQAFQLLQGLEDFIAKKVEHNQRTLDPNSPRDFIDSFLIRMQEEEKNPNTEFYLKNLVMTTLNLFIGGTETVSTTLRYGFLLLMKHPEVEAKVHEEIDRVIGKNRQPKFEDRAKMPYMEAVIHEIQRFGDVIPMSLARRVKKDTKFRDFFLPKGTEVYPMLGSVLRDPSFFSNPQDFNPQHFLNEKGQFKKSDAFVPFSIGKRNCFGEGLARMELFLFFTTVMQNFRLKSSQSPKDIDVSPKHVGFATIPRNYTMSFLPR
UniProt P08684, whole entry: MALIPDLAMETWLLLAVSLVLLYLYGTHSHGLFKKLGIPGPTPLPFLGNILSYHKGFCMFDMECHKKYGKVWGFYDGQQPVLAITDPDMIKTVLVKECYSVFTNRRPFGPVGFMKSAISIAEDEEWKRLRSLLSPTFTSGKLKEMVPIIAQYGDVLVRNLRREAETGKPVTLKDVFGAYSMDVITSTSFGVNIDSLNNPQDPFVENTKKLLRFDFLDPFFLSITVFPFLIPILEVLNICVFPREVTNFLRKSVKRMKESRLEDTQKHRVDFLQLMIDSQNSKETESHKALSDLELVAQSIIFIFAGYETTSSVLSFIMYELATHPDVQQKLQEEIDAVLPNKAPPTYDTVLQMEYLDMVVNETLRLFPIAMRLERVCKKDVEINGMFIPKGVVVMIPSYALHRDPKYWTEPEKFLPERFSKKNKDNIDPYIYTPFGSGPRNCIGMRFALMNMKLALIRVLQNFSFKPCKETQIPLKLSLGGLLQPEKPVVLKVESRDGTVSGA
UniProt Q12809: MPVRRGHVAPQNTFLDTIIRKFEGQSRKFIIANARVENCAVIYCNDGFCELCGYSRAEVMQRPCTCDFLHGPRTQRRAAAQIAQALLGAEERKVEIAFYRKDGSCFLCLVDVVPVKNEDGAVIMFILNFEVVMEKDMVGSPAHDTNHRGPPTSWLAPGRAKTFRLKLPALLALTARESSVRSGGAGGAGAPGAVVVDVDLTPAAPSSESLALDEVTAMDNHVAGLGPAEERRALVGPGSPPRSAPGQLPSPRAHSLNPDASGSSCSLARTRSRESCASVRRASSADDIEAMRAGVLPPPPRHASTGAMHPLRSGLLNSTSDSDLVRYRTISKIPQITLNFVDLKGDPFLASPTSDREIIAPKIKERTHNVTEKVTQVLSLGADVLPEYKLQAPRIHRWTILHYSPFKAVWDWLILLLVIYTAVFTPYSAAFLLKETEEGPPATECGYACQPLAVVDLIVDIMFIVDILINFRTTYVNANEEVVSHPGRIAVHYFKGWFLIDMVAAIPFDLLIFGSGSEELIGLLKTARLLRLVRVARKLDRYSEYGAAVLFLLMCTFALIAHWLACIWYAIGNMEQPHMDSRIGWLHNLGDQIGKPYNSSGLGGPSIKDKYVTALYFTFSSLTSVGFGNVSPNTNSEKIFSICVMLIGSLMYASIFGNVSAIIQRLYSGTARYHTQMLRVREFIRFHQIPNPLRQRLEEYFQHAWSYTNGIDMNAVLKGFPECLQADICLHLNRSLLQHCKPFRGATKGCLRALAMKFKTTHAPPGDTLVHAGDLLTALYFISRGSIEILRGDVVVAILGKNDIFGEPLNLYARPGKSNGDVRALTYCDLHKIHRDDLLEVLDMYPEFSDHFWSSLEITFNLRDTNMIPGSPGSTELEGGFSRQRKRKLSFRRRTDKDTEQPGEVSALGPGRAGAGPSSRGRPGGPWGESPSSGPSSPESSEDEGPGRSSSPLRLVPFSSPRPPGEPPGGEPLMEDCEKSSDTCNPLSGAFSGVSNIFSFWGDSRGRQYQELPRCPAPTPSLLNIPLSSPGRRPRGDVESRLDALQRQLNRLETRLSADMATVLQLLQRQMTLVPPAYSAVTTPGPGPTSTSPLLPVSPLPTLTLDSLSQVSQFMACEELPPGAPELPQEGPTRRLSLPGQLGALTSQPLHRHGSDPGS
UniProt P43140: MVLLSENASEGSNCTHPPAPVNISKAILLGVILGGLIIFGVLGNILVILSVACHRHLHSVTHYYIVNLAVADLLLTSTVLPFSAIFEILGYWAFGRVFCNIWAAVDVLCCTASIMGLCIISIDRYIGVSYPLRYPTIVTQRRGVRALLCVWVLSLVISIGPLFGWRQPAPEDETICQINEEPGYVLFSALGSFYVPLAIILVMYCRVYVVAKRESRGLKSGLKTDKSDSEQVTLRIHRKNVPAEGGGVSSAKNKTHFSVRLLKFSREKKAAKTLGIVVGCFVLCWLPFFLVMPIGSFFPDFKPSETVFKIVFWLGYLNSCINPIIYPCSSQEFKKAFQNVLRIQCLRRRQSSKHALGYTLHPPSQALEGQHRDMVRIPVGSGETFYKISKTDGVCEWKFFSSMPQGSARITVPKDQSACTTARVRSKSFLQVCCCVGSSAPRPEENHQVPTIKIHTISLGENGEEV
UniProt P07727: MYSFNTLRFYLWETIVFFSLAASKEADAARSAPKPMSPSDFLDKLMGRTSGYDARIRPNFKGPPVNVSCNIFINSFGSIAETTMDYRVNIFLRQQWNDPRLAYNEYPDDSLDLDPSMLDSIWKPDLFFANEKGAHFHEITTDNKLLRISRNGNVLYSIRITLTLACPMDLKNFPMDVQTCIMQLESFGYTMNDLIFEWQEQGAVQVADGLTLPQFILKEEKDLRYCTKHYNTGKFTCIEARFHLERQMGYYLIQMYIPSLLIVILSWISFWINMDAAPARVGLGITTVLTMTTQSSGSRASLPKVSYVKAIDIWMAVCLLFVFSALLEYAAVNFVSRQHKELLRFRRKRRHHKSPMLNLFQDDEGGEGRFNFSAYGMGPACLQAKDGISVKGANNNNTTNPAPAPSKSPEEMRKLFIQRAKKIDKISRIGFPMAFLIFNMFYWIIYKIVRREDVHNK
UniProt P20781: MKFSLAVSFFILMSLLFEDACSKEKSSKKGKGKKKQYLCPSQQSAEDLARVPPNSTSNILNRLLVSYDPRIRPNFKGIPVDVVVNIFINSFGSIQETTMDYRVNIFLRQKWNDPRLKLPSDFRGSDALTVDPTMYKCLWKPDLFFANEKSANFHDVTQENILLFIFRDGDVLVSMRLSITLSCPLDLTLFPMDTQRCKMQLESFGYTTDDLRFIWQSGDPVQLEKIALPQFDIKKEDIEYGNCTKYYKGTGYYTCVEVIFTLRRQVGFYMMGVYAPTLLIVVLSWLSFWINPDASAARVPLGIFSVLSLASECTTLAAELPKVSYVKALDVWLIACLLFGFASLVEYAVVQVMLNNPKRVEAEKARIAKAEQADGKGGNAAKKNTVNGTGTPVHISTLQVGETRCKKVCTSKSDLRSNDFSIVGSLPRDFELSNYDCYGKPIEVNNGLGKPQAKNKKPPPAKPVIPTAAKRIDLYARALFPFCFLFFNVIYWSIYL
UniProt P22771: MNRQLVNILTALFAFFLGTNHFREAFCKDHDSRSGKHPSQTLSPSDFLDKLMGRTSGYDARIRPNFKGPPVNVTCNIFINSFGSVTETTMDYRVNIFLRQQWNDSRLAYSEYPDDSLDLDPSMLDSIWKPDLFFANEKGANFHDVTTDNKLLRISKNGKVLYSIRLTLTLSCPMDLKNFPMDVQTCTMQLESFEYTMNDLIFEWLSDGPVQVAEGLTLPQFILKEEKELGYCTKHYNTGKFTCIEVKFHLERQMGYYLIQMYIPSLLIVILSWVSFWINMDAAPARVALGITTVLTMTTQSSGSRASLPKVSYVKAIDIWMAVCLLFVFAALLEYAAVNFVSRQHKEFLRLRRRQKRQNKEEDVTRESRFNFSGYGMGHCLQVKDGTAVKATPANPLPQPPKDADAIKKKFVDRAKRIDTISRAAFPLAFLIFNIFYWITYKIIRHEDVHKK
UniProt P24524: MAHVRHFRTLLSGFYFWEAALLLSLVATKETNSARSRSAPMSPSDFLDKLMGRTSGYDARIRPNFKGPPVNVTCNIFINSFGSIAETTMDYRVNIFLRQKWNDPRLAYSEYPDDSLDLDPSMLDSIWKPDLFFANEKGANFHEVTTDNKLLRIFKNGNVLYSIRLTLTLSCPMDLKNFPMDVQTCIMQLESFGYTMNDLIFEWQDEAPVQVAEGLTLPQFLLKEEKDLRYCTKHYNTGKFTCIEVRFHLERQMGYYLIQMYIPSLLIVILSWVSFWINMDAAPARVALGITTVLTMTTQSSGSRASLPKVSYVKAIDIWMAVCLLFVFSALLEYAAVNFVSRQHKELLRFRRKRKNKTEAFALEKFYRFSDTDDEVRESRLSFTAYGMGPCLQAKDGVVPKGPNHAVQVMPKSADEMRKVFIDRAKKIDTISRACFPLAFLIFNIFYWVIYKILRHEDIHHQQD

The target of data set [1] is T1, Alpha-1B adrenergic receptor (Rattus norvegicus, UniProt P15823).
T1 sequence (P15823 whole entry): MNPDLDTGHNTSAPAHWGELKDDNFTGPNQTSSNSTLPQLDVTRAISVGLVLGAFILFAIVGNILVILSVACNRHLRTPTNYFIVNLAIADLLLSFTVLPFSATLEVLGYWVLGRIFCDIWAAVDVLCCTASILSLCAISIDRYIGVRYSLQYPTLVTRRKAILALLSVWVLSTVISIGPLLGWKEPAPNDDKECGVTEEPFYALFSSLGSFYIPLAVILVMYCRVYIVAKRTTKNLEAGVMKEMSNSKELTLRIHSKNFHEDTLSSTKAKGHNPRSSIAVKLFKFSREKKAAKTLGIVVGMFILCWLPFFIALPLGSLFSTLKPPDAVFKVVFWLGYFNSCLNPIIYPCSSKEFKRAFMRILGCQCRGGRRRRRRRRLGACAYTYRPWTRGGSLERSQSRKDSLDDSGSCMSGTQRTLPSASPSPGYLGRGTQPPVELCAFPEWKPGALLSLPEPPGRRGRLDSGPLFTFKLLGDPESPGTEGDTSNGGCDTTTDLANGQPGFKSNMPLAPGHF
Description: DRUGMATRIX: Alpha-1B adrenergic receptor radioligand binding (ligand: prazosin). The format is cell membranes, Wistar, Liver, Membrane. The following applies: Not Active = under 50% inhibition at 10 µM.

A further data set has as its target Cytochrome P450 1A2 (Homo sapiens, UniProt P05177). The note with it: bti-tn-5b1-4. Note: in other assays of this panel Not Active means under 50% inhibition at 10 µM.
Another data set has as its target Cytochrome P450 2A6 (Homo sapiens, UniProt P11509). The following applies: bti-tn-5b1-4. Note: in other assays of this panel Not Active means under 50% inhibition at 10 µM.
In a further data set the target is Cytochrome P450 3A4 (Homo sapiens, UniProt P08684). The following applies: bti-tn-5b1-4. Note: in other assays of this panel Not Active means under 50% inhibition at 10 µM.
Data set [2] addresses Voltage-gated inwardly rectifying potassium channel KCNH2 (Homo sapiens, UniProt Q12809). The note with it: hek293.
Data set [3] has as its target Alpha-1A adrenergic receptor (Rattus norvegicus, UniProt P43140). Description: DRUGMATRIX: Alpha-1A adrenergic receptor radioligand binding (ligand: prazosin). The following applies: Not Active = under 50% inhibition at 10 µM. The format is cell membranes, Wistar, Submaxillary gland, Membrane.
The target in a further data set is Glycine receptor (Rattus norvegicus, UniProt P07727+P20781+P22771+P24524). The format is cell membranes, Wistar, Spinal cord, Membrane. Note: in other assays of this panel Not Active means under 50% inhibition at 10 µM.

Take `C(=C\c1ccccc1)/CN1CCN(C(c2ccccc2)c2ccccc2)CC1` [CINNARIZINE]: the inhibitory constant (Ki) (commonly a dissociation constant, usually derived from enzyme kinetics or from competition with a known ligand) in data set [1] was 502 nM; on Cytochrome P450 1A2, “Not Active”; at Cytochrome P450 2A6 it was “Not Active”; on Cytochrome P450 3A4, “Not Active”; in data set [2], “Not Active”. Besides, the IC50 (as a rule, the concentration that inhibits the measured activity by half) in data set [1] (read-out: IC50) is 906 nM; on Cytochrome P450 1A2, “Not Active”; at Cytochrome P450 2A6, “Not Active”; at Cytochrome P450 3A4, “Not Active”; in data set [2] it was “Not Active”.
Consider `Clc1ccc2c(c1)CCc1cccnc1C2=C1CCNCC1` [DESLORATADINE], for which the IC50 entry in data set [3] is “Not Active”. At Glycine receptor, this molecule registered an IC50 of 834 nM and a Ki of 471 nM.
